Values from PubChem BioAssay AID1671195 (Yale University, 2021)
Here is one part, drawn at random, of about 22,000 deposited reagents. About 1,510 of all reagents (6.9%) were called active. 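Active includes knockdowns raising or lowering LDL uptake; positive z-scores mean more uptake, negative mean less.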 A number with no mark means an inactive call. Reagents against one gene are numbered here. Reagent sequences are not shown.

- Purpose: 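Genes whose knockdown alters LDL uptake in liver cancer cells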 (primary screen)
- Cells: human Huh7 hepatoma cells
- Reagent: siRNA pool against human genes, 18 nM
- Duration: about 2 to 2.5 days of knockdown, then 8 h LDL uptake
- Challenge: DiI-labelled LDL at 30 µg/ml for 8 h, in lipoprotein-deficient serum medium
- Detection: 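Per-cell DiI-LDL intensity by automated imaging; well means scaled to the plate median and given as a robust z-score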
- Reading the numbers: robust z-score: higher = more LDL uptake after knockdown
- Active means: 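a gene counts as active if at least two replicate z-scores exceed ±2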

gene symbol | reagent no. | robust z-score, replicate 1 | robust z-score, replicate 2 | robust z-score, replicate 3
SMARCA4 | 1 | -0.916 | -1.35 | -1.04
USP14 (ubiquitin specific peptidase 14) | 1 | 0.296 | 0.765 | 0.43
LOC389671 (retired record) | 1 | -0.513 | -0.227 | -0.221
PGC (progastricsin) | 1 | 1.39 | 0.854 | 0.959
HNRNPL (heterogeneous nuclear ribonucleoprotein L) | 1 | 0.578 | 0.19 | -0.0823
KU-MEL-3 | 1 | -0.18 | 0.222 | 0.135
DPY19L2 (dpy-19 like 2) | 1 | -0.821 | -0.66 | -0.472
LOC338902 (retired record) | 1 | 0.302 | 0.192 | 0.057
C1GALT1 | 1 | -0.29 | 0.227 | -0.468
RPL34P34 (ribosomal protein L34 pseudogene 34) | 1 | -0.554 | -0.127 | -0.144
MIR3667HG (MIR3667 host gene) | 1 | -0.0575 | -0.932 | -0.258
KRT6C (keratin 6C) | 1 | 0.579 | 0.644 | 0.793
LDB1 (LIM domain binding 1) | 1 | 0.00797 | 0.0844 | -1.53
DPEP3 (dipeptidase 3) | 1 | -0.986 | -1.17 | -0.791
XPR1 (xenotropic and polytropic retrovirus receptor 1) | 1 | -0.689 | -1.24 | -1.22
SLF2 (SMC5/6 complex localization factor 2) | 1 | 0.265 | 0.8 | 0.631
LRRC9 (leucine rich repeat containing 9) | 1 | 0.668 | 0.842 | 0.632
NPHS1 (NPHS1 adhesion molecule, nephrin) | 1 | -1.06 | 0.492 | 0.185
CEP131 (centrosomal protein 131) | 1 | 0.772 | 3.54 | 0.0991
FNDC11 (fibronectin type III domain containing 11) | 1 | -0.0529 | -1.09 | 0.462
PIK3CD | 1 | 0.44 | 0.179 | 0.856
VAV3 (vav guanine nucleotide exchange factor 3) | 1 | 0.54 | 0.512 | 0.505
EML1 (EMAP like 1) | 1 | 1.98 (active) | 1.39 | 2.11
ZNRF3 (zinc and ring finger 3) | 1 | -1.21 | -1.15 | -1.16
LGR4 (leucine rich repeat containing G protein-coupled receptor 4) | 1 | -0.985 | -0.544 | -0.156
ANKRD40CL (ANKRD40 C-terminal like) | 1 | 0.359 | 2.06 | -1.06
ACOXL (acyl-CoA oxidase like) | 1 | -1.18 | -0.784 | -0.708
BCORP1 (BCL6 corepressor pseudogene 1) | 1 | -0.354 | 0.0828 | 0.0779
LOC399933 (retired record) | 1 | -0.718 | -1.05 | -1.39
ZFYVE26 (zinc finger FYVE-type containing 26) | 1 | -1.47 | -0.297 | -0.461
OR1L1 (olfactory receptor family 1 subfamily L member 1) | 1 | 0.764 | -0.302 | -1.6
C1QC (complement C1q C chain) | 1 | -1.56 | -1.16 | -2.07
BORA (BORA aurora kinase A activator) | 1 | 0.271 | -0.149 | -0.415
C9orf153 (chromosome 9 open reading frame 153) | 1 | -0.305 | -0.305 | -0.456
ZNF382 (zinc finger protein 382) | 1 | 2.14 (active) | 1.79 | 2.27
GARS1-DT (GARS1 divergent transcript) | 1 | 0.522 | 0.39 | 0.179
AGA-DT (AGA divergent transcript) | 1 | -1.15 | -0.691 | -0.913
HOXB2 (homeobox B2) | 1 | 0.78 | 0.541 | 0.776
ALKBH2 (alkB homolog 2, alpha-ketoglutarate dependent dioxygenase) | 1 | 1.7 | 1.09 | 1.37
YIPF7 (Yip1 domain family member 7) | 1 | -0.594 | -0.388 | -0.733
SENP2 (SUMO specific peptidase 2) | 1 | -0.096 | 0.0489 | 0.0625
CAV2 (caveolin 2) | 1 | 0.652 | 0.823 | 0.717
BRS3 (bombesin receptor subtype 3) | 1 | 0.348 | -0.558 | -0.73
DDI2 (DDI proteasomal shuttling factor 2) | 1 | 0.491 | 0.469 | 0.551
DDI2 (DDI proteasomal shuttling factor 2) | 2 | -0.72 | -0.564 | -0.205
HOMER3 (homer scaffold protein 3) | 1 | -0.57 | 1.36 | -0.741
PKMYT1 (protein kinase, membrane associated tyrosine/threonine 1) | 1 | 3.47 | 1.66 | 1.84
RWDD2B (RWD domain containing 2B) | 1 | 2.85 (active) | 1.98 | 1.48
LOC441839 (retired record) | 1 | -1.35 | -1.31 | -1.25
DICER1-AS1 (DICER1 antisense RNA 1) | 1 | -1.49 | -0.874 | -0.679
AQP5 (aquaporin 5) | 1 | -0.363 | 0.00842 | -0.815
LOC339979 (retired record) | 1 | 0.467 | 0.698 | 0.417
SPACA1 (sperm acrosome associated 1) | 1 | -0.344 | -0.857 | -0.781
LOC441798 (retired record) | 1 | 1.5 | 1.37 | 1.72
UBXN11 (UBX domain protein 11) | 1 | -2.17 (active) | -1.21 | -2.21
LOC442392 (retired record) | 1 | -0.626 | -0.484 | -0.543
EDIL3 (EGF like and discoidin domains 3) | 1 | -1.34 | -1.44 | -1.01
SEMG2 (semenogelin 2) | 1 | -0.41 | -0.422 | -1.27
ANXA2 (annexin A2) | 1 | 1.11 | 0.858 | 0.281
FLJ46365 (retired record) | 1 | -1.96 | -1.95 | -1.82
CNOT4 (CCR4-NOT transcription complex subunit 4) | 1 | 0.774 | 0.725 | 1.42
IQCH (IQ motif containing H) | 1 | 0.325 | 1.49 | 1.03
LOC399921 (retired record) | 1 | 0.935 | 0.583 | 0.353
LOC388847 (retired record) | 1 | -0.734 | -0.883 | -0.622
ARHGEF10 (Rho guanine nucleotide exchange factor 10) | 1 | -0.761 | -0.58 | -0.417
CRYBA2 (crystallin beta A2) | 1 | -0.269 | 0.211 | -1.53
OTUD6A (OTU deubiquitinase 6A) | 1 | -0.426 | -0.0461 | -0.378
PHF1 (PHD finger protein 1) | 1 | -1.6 | -1.5 | -1.23

5 of these entries, reformatted:
gene symbol	reagent no.	robust z-score, replicate 1	robust z-score, replicate 2	robust z-score, replicate 3
UBXN11 (UBX domain protein 11)	1	-2.17 (active)	-1.21	-2.21
LOC442392 (retired record)	1	-0.626	-0.484	-0.543
EDIL3 (EGF like and discoidin domains 3)	1	-1.34	-1.44	-1.01
SEMG2 (semenogelin 2)	1	-0.41	-0.422	-1.27
ANXA2 (annexin A2)	1	1.11	0.858	0.281
